Assay results as given in patent US6812231B2, “Benzamidine derivative” (Ajinomoto Co., Inc., priority 1998, dated 2004).
For at least one compound, name, drawing or mass did not settle the structure.

The chains behind the UniProt entries cited, without tags or fusion partners. Residues count along the entry.
UniProt P00742, 41-179 partner limits assumed: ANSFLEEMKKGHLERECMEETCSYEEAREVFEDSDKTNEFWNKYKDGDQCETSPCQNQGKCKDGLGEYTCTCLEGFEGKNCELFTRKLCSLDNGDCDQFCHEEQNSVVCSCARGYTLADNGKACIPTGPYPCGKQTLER
UniProt P00742, 235-488 limits assumed: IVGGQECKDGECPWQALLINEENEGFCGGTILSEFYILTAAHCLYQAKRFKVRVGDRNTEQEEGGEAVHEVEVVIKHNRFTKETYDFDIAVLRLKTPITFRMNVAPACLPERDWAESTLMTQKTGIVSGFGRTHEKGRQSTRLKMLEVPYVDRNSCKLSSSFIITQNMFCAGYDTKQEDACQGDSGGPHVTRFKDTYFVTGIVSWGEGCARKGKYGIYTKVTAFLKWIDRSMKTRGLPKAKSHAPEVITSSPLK

Target: T1, activated human blood coagulation factor X (Homo sapiens, UniProt P00742)
T1 construct: purchased Enzyme Research Co
Assay: Determination of activity of inhibiting the activated blood-coagulation factor X (chromogenic substrate, initial rate)
Assay type: biochemical
Details: tris hydrochloride buffer pH 8.4, room temperature, absorbance 405 nm
Method: Determination of Activity of Inhibiting the Activated Blood-coagulation Factor X
130 μl of 100 mM tris hydrochloride buffer adjusted to pH 8.4 was added to 10 μl of an aqueous solution of a compound to be tested. Then 10 μl of a 0.5 unit/ml solution of activated human blood coagulation factor X (a product of Enzyme Research Co.) in tris hydrochloride of pH 8.4 was added to the resultant mixture. After the incubation at room temperature for 10 minutes, 50 μl of a solution of N-benzoyl-L-isoleucyl-L-glutamyl-glycyl-L-arginyl-P-nitroanilide hydrochloride (a product of Peptide Institute, Inc.) adjusted to 0.8 mM with tris hydrochloride (pH 8.4) was added thereto. The absorbance was determined and then the initial reaction rate was determined. A control was prepared in the same manner as that described above except that the solution of the compound to be tested was replaced with 10 μl of tris hydrochloride buffer adjusted to pH 8.4. The absorbance was determined with MICROPLATE READER Model 3550-UV (a product of BIO RAD) at a wave length of 405 nm at intervals of 15 seconds for 16 minutes.

## COC(=O)c1ccc(C(=N)N)cc1OCCNC(=O)c1ccc(OC2CCN(C(C)=N)CC2)cc1.O=C(O)C(F)(F)F.O=C(O)C(F)(F)F [Compd. of Ex. 38, methyl 4-amidino-2-[2-(4-[1-(1-acetimidoyl)-4-piperidyloxy]benzoylamino)ethoxy]benzoate bistrifluoroacetate]
  Activity of inhibiting activated blood coagulation factor X (pIC50): 7

## CC(=N)N1CCC(Oc2ccc(C(=O)NCCOc3cc(C(=N)N)ccc3C=CC(=O)O)cc2)CC1.O=C(O)C(F)(F)F.O=C(O)C(F)(F)F [Compd. of Ex. 2, 3-[4-amidino-2-(2-(4-(1-(1-acetimidoyl)-4-piperidyloxy)benzoylamino)ethoxy)phenyl]acrylic acid bistrifluoroacetate]
  Activity of inhibiting activated blood coagulation factor X (pIC50): 7
